Protein sequences, listed by entry. Tags and fused reporters are not part of them.
UniProt P78527: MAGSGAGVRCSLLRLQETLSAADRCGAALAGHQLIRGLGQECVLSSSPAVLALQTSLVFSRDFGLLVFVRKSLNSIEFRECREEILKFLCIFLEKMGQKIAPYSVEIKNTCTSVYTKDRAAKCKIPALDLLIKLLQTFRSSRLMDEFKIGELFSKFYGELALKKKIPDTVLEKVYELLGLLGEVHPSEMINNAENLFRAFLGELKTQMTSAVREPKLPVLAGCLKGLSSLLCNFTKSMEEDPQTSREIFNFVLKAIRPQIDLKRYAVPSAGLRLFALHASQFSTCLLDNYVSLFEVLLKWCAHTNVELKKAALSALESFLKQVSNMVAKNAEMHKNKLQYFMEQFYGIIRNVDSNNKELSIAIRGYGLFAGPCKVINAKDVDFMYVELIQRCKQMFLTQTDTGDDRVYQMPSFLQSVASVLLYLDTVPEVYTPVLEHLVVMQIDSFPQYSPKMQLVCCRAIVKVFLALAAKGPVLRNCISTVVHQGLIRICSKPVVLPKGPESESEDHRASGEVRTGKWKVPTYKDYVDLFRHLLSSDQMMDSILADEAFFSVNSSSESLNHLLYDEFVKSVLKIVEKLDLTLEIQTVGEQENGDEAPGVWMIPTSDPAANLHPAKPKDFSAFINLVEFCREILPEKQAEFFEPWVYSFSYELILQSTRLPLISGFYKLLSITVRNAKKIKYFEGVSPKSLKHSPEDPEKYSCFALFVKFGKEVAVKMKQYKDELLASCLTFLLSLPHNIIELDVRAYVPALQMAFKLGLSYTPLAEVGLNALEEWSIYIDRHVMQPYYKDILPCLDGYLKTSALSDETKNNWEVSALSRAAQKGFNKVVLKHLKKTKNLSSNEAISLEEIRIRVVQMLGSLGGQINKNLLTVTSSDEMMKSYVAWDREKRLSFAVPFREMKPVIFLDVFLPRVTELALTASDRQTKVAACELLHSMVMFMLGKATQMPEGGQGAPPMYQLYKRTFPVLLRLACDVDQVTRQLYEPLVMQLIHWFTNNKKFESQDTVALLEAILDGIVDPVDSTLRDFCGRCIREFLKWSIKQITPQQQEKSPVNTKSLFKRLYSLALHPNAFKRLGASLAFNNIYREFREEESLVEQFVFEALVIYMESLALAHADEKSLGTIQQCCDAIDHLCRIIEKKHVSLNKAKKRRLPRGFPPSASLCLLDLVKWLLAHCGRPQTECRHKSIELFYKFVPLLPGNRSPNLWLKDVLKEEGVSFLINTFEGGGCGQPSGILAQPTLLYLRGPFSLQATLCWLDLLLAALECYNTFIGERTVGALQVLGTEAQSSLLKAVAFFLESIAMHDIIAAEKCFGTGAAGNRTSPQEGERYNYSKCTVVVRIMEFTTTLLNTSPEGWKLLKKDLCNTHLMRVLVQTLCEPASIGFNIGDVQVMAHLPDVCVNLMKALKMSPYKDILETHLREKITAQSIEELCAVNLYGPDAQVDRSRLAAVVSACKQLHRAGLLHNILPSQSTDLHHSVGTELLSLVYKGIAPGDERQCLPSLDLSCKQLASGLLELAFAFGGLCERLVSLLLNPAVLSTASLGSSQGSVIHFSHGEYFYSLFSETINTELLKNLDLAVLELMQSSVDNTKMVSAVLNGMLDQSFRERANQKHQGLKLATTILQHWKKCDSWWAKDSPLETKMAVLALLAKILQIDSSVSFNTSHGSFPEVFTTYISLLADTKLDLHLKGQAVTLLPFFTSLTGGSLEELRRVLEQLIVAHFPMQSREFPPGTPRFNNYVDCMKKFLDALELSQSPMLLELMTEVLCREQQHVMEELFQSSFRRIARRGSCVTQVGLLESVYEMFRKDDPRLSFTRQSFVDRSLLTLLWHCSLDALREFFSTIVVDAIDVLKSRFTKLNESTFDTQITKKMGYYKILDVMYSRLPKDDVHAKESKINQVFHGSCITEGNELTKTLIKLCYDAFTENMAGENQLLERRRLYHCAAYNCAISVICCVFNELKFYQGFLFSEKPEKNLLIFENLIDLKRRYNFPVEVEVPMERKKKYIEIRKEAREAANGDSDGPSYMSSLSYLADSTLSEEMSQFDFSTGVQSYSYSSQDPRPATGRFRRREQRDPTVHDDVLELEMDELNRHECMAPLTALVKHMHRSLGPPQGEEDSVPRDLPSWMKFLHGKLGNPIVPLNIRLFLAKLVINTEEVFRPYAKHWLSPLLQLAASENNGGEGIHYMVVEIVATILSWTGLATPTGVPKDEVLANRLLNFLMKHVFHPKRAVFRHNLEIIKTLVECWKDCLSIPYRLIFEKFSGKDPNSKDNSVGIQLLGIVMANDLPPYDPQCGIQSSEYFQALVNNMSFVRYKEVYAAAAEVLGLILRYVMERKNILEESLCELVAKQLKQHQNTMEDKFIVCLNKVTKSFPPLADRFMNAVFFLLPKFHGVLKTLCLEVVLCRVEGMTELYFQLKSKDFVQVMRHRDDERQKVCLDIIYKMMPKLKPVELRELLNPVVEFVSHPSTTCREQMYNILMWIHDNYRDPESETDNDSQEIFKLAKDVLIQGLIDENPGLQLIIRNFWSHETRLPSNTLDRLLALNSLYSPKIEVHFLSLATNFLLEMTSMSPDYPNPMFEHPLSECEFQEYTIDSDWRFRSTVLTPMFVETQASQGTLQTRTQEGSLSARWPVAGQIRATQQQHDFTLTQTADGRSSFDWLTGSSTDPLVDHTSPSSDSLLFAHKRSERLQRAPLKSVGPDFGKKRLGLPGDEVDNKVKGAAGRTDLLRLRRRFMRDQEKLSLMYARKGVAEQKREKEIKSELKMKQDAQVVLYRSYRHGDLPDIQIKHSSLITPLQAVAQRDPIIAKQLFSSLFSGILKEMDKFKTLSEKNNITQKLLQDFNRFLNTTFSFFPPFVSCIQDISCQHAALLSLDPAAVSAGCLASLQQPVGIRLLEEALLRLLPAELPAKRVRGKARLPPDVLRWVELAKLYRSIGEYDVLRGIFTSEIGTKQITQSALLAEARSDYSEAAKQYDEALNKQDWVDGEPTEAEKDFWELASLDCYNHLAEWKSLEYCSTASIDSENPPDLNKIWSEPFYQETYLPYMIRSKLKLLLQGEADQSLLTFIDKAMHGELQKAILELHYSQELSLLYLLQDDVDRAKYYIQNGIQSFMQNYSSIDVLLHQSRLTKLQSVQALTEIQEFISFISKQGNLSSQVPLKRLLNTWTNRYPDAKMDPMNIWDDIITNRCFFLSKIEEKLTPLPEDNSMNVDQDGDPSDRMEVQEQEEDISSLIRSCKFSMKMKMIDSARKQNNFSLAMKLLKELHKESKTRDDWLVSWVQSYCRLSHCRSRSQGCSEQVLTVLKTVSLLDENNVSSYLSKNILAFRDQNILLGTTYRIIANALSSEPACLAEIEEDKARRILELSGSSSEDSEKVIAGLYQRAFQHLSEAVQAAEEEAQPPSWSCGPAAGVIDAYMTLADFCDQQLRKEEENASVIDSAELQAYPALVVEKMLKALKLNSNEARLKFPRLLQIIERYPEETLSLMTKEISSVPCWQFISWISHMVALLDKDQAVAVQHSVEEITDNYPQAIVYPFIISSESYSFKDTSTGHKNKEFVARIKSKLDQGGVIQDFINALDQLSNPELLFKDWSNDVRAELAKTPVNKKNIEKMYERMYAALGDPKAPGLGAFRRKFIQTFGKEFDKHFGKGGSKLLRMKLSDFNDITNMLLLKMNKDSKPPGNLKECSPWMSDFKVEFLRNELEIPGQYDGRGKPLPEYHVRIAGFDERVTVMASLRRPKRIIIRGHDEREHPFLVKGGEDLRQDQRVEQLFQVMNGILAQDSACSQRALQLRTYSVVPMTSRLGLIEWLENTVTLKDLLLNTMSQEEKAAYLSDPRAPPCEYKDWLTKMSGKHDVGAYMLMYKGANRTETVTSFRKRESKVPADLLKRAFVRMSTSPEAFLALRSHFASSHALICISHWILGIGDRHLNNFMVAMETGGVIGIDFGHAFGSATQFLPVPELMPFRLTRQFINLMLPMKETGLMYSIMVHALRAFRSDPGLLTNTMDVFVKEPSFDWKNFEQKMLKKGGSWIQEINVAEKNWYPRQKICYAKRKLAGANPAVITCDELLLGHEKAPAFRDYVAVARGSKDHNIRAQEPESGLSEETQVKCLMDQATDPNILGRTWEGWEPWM
UniProt O14980: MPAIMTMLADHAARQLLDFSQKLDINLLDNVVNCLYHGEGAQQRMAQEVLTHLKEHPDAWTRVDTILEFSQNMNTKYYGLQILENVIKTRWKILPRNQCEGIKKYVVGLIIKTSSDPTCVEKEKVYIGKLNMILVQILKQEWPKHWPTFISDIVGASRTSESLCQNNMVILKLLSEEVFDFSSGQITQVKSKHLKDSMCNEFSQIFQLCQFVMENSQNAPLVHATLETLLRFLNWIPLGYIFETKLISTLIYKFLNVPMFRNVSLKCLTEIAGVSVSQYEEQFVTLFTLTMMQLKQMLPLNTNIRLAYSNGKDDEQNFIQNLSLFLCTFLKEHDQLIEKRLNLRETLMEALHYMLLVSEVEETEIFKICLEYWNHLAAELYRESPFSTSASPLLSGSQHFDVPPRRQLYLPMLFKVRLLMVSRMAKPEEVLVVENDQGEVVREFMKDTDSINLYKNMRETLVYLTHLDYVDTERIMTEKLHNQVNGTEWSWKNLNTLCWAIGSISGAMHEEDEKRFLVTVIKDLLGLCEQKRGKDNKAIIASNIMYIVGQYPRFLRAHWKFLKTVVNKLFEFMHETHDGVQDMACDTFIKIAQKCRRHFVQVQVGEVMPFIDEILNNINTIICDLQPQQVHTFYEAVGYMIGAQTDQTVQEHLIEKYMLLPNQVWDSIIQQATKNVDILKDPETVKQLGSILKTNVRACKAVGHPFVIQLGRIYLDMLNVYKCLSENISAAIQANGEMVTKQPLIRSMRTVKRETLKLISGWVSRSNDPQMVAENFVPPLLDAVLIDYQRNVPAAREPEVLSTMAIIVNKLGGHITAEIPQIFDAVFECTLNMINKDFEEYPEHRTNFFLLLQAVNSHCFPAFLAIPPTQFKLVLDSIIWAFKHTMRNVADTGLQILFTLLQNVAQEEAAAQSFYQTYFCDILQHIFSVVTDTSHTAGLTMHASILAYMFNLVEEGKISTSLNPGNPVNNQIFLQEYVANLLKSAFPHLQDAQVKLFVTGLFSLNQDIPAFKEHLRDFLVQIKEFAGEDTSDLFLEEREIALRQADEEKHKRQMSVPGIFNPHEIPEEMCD
UniProt Q14974: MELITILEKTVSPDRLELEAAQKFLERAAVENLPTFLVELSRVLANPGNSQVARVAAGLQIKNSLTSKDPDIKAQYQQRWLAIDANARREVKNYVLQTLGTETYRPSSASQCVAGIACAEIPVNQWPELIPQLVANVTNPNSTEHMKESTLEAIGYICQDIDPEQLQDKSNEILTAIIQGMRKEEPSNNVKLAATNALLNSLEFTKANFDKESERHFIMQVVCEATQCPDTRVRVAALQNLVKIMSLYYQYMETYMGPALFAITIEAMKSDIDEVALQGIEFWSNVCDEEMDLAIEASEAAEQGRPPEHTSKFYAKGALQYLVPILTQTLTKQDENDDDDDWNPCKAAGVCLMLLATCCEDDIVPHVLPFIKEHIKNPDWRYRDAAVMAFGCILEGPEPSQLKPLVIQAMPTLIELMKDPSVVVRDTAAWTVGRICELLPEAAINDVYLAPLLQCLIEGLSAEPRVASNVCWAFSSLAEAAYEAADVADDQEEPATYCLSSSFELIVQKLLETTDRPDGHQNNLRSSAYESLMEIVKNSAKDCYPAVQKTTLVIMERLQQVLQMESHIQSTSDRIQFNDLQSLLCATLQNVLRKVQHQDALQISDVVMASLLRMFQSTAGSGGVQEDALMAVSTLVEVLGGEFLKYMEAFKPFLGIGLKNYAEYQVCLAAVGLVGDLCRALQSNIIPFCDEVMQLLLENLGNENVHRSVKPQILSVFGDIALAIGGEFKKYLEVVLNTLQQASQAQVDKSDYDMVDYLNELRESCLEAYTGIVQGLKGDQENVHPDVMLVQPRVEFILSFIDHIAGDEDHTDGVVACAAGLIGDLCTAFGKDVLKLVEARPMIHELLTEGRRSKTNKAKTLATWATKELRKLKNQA

According to paper PMC9698582:

What follows are substances tested against T1, GPR37L1 tagged with turbo green fluorescence protein (GFP) (human) (UniProt O60883) (assay: affinity purification with mass spectrometry; lysate (50 mM HEPES pH 7.6, 150 mM KCl, 2 mM EDTA, 0.5 mM DTT, 0.5% NP40) of hRPTCs expressing GPR37L1-GFP, fractionated on a 10-30% glycerol gradient; fractions 10-14 pooled, captured with GFP antibody on Protein G Dynabeads, eluted with SDS sample buffer, in-gel trypsin digestion, LC-MS/MS).
T1 sequence: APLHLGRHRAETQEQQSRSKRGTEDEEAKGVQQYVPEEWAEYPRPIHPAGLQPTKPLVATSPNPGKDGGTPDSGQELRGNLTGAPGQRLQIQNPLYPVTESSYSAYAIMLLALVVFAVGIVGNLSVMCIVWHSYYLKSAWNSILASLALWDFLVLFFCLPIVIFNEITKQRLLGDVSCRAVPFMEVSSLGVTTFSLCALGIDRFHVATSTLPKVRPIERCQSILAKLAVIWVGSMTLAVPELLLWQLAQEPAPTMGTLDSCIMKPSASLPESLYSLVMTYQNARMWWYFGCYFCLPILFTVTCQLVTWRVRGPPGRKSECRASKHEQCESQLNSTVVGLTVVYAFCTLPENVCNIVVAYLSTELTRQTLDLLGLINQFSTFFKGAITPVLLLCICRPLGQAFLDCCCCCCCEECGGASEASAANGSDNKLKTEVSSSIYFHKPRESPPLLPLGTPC

binding, binds:
DNA-dependent protein kinase catalytic subunit (from UniProt P78527 1-4128) (enzyme), Exportin-1 (from UniProt O14980 1-1071), Exportin-5 (from UniProt Q9HAV4 1-1204), Importin subunit beta-1 (from UniProt Q14974 1-876), Importin-1 (human (endogenous in hRPTCs)), Nuclear pore membrane glycoprotein 210 (from UniProt Q8TEM1 27-1887)

Results are given in words; binding and its absence hold for the method and conditions named. In cells and extracts the contact can be indirect. Here binding means that the protein was enriched with, or labelled near, the bait; the list need not be complete. Where a sequence is shown, tags or fusion partners need not be part of it.
